Paper PMC9937023

T1: Stat92E, HA-tagged (pAC5.1-Stat92E-HA) (Drosophila melanogaster) (UniProt Q24151)
T1 sequence: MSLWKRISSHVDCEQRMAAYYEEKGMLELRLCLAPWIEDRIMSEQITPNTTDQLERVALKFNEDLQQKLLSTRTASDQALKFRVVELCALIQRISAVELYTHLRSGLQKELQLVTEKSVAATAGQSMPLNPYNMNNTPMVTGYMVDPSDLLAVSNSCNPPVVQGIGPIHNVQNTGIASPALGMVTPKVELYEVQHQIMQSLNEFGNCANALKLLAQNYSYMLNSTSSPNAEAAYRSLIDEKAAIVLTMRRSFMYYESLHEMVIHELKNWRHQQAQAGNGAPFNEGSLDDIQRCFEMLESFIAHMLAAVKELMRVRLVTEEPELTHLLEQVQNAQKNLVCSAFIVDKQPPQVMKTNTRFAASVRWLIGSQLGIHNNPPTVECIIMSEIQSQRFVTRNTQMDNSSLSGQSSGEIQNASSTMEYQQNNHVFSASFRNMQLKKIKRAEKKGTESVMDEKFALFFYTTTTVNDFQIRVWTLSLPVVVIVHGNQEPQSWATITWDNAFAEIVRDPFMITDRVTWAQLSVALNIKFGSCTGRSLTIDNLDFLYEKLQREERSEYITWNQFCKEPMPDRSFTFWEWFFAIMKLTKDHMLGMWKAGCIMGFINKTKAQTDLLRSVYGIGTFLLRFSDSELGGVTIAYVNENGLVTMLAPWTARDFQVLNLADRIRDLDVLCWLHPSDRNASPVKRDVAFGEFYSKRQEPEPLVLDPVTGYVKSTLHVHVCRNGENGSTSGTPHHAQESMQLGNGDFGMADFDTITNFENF


How the values were obtained:
[1] = target: T1, Stat92E, HA-tagged (pAC5.1-Stat92E-HA) (Drosophila melanogaster); test: co-IP; S2 cells co-transfected with Stat92E-HA and Flag-tagged domains of Ect4; lysates (150 mM NaCl, 25 mM Tris-HCl pH 7.4, 5% glycerol, 1% NP-40, 1 mM EDTA) incubated overnight at 4°C with anti-HA affinity gel; Western blot
[2] = target: Ectoderm-expressed 4 (Ect4), Flag-tagged (pAC5.1-Ect4-Flag) (Drosophila melanogaster); test: co-IP; S2 cells co-transfected with differentially tagged Ect4 and JAK/STAT components; lysates (150 mM NaCl, 25 mM Tris-HCl pH 7.4, 5% glycerol, 1% NP-40, 1 mM EDTA) incubated overnight at 4°C with anti-Flag M2 affinity gel; Western blot

binding [1]	binding [2]	Molecule
no binding		Ect4 ARM domain (aa 318-701), Flag-tagged (Drosophila melanogaster) (domain or fragment)
binds		Ect4 TIR domain (aa 829-1360), Flag-tagged (Drosophila melanogaster) (domain or fragment)
	no binding	Hopscotch (Hop), V5-tagged (pAC5.1-hop-V5) (enzyme, UniProt Q24592 1-1177) MALANGGEDRMDDSSSGRTSLADSASLTNSSLRSGTSSQSIHTNDGTIRVFNFTTGEFERFHPNMLCEEICNTMCRQLGIAPIAQLLYGIREHSTSRRPSPLVRLDLTWCLPGERLNCQLVYCFRMRFRVPELDSQLELIDGRSHKFLYRQMRYDMRTEQIPEIRYPEHKDKSTGLAVMDMLIDDQEQSEDQQAMRSIEKLYKLYLPPSLWRAHSFFVGSKIREVFRSLKANSLSVERLKWHYVHQVSHLAPTYMTEQFTCTVQYLPNEEVARGSGPIGTSLAHSTSTLASSGSTNTLSTLTTNTNSVALGGSGKKAKRRSTSGGIDVYVRVFPHDSLEPGLKVARVTSEATLKWILVGAVEGIFMISKINDTSVRLEIVGLPKGYEMQFQTEKEMKSFISYLGIYIRLSSKWMQDLCHSYRTPSLEELSSLHCHGPIGGAYSLMKLHENGDKCGSYIVRECDREYNIYYIDINTKIMAKKTDQERCKTETFRIVRKDSQWKLSYNNGEHVLNSLHEVAHIIQADSPDRYRIPASKYDKPPLLLLLLPKNLKAKKTDLQLSEAELQRRNPQIFNPRTDLQWYPDSISLSDDGMMFTMRGDWIQQSPVKDVSVTMKMLKSDGNFMEFFRLAQTWSLIQSPQFLKLYGLTLADPYTMVMEYSRYGPLNKFLHSMPNVTLHCLLDLMHGLVRGMHYLEDNKIIHNYIRCSNLYVTKYDPNSYVLDAKISDPGYPRPYRESDSPWIPVKYYRNLQAAKTDQFAQLWAFATTIYEIFSRCKEDLSTLRQEQLLRQKNLDGNILKMLDQDICPAPIFETIMDGWSDDETKRFSHHDIFSRLNTIKAEILPNYMPPPEIATNGTGDETVIDRSDIPFLPFPRSNMLMVIPLTSECRVIYNMENMIGRGHYGTVYKGHLEFNDKDQPREQVAIKMLNTMQVSTDFHREIGIMRTLSHPNIVKFKYWAEKSHCIIMEYLQSGSFDIYLRFTAPNLNNPRLVSFALDIANGMKYLSDMGLIHRDLAARNILVDHNGDGDCVKISDFGLAQFANSDGYYYAKSKRDIPIRWYSPEAISTCRFSSYSDVWSYGVTLFEMFSRGEEPNLVPIQTSQEDFLNRLQSGERLNRPASCPDFIYDLMQLCWHATPRSRPSFATIVDIITREVATKVTHPTDGHQSPPNQPTDAE

Further lines, the molecule ahead of its results:

Molecule	binding [1]	binding [2]
Ect4 SAM domain (aa 680-826), Flag-tagged (Drosophila melanogaster) (domain or fragment)	no binding	
Domeless (Dome), V5-tagged (pAC5.1-Dome-V5) (receptor, UniProt Q9VWE0 24-1282) ILDPGWVIPSKVEQLIGGDFNLSCTLNEDYFNGKSAEDCPVEKLYFTGGGRVYRDSKHIRILNNTTILFSDTNAVEQENDYHCMCDEYVINKSKVYVGTRPLLVRDFNCLDYDFQFMVCNFTQPPNTVITKYNISYNTNNDWRYSNTLDCNFDSAPVVTCNLTDDNYKRFSETFYFRLSISNALGHETQPITINHFERLVPARPGQNLTLLNRTESSVCLSWEMPRRSNYNRGLVWQVRVTPQNFEPITRPSWRNHTLTIKDTLCLTELPFAGYNYTLRVRVRANQNNTLWSEPMIYAFATAPAPPRRPPRVTYGSFYVYSSEKAMRFYWEPLEEHELNGPDFRYSISEYRINGTAVDPGLIKVESNSAMIDHWSMSAVHHFLIRSSNSQGLSVNATPMTIGPISNRDFKVREPRNIRSVYHPTNKSYTLSWDPPSDQRELQNYTVFWCVPKPGLQSECEGSIRFAEVASGLHHFTTSPDQLLTLHMAVSANYQSHNTGLHWAICSSDKKDDLAKMEPSIDVATSTSLTVSWSERVCAVILAGYNLTYCQRSAGRPDNCTTVTIDRYTNKHVIQNLVPYTDYSVKMLMYSDSRVSKYSDELVNRTGEAAPSQPRELQLIRVTSDSVELAWKPPLLANGVVRAYEGTFRSLHDNVTDTFRVSASADELVNNEKPITYRLGNLTAFTKYEISVRARTVYPSEPSNVILFSTAIGVPSPPQLYVINNPDQSSRLDWEPPRTPAGRIDFYEISLRDNNASCLTSTILPGRNLSYVMATPRCTSHNPFQLAVRAINVEQHPQLNGADAAEGAVLLMSTNGKGCEARTDALGEEERLQFEAYAANMTAYRLYRSDWGIYGFICTPDTHSVKAMYQTIEVTVAILVLGVIFYLVYKKYRKMSDIGLVLPQGIMETMKKPIDMGGLGLGLGPDSSVSGGIVCTRVDDSPPYTPQDLPHDFSSCGSESSKLLLRTASSSGGGGCVDRDGYDDNHETGPISAVGPPTSYLAMRHGLLVQNDRERERERDREQEREREQQQQQRESEMDREQSCTNGYIKPTQMKSWGGNGPSDNDHTFSVPSTAMTAPMSQPLSQIPLSGYVPVPIPQSRFNPAPVQPFGSPAVPSAATAAAASTFFPPAHLLNMDNYVQASDLHKLKPLVAAPLSQTGGPAFAGSSPATSPPLQLPPVHAASPAAATPKMADIGYTTMEQLQLTGLIKPPLAATVGSPTHAAGGAPGGGNQHSRLQPQINGYVTPQDLNAMAHNRHVL		no binding
Stat92E, HA-tagged (pAC5.1-Stat92E-HA) (protein, UniProt Q24151 1-761) MSLWKRISSHVDCEQRMAAYYEEKGMLELRLCLAPWIEDRIMSEQITPNTTDQLERVALKFNEDLQQKLLSTRTASDQALKFRVVELCALIQRISAVELYTHLRSGLQKELQLVTEKSVAATAGQSMPLNPYNMNNTPMVTGYMVDPSDLLAVSNSCNPPVVQGIGPIHNVQNTGIASPALGMVTPKVELYEVQHQIMQSLNEFGNCANALKLLAQNYSYMLNSTSSPNAEAAYRSLIDEKAAIVLTMRRSFMYYESLHEMVIHELKNWRHQQAQAGNGAPFNEGSLDDIQRCFEMLESFIAHMLAAVKELMRVRLVTEEPELTHLLEQVQNAQKNLVCSAFIVDKQPPQVMKTNTRFAASVRWLIGSQLGIHNNPPTVECIIMSEIQSQRFVTRNTQMDNSSLSGQSSGEIQNASSTMEYQQNNHVFSASFRNMQLKKIKRAEKKGTESVMDEKFALFFYTTTTVNDFQIRVWTLSLPVVVIVHGNQEPQSWATITWDNAFAEIVRDPFMITDRVTWAQLSVALNIKFGSCTGRSLTIDNLDFLYEKLQREERSEYITWNQFCKEPMPDRSFTFWEWFFAIMKLTKDHMLGMWKAGCIMGFINKTKAQTDLLRSVYGIGTFLLRFSDSELGGVTIAYVNENGLVTMLAPWTARDFQVLNLADRIRDLDVLCWLHPSDRNASPVKRDVAFGEFYSKRQEPEPLVLDPVTGYVKSTLHVHVCRNGENGSTSGTPHHAQESMQLGNGDFGMADFDTITNFENF		binds

No constants are given. Whether binding was seen depends on the method and setting. In cells and extracts the contact can be indirect. A result given as binding can be weak or reduced; the word gives no strength. Where a sequence is shown, tags or fusion partners need not be part of it.
